± gives the standard deviation of the averaged measurements. The list shows a part of the results.
Compound: Nc1nc2c(ncn2[C@@H]2O[C@H](COP(=O)(O)OP(=O)(O)OP(=O)(O)O)[C@@H](O)[C@H]2O)c(=O)[nH]1 [guanosine triphosphate]
Experiment: NP40-soluble protein abundance relative to vehicle (solubility fold change) (ratio); higher = more soluble protein in presence of GTP
Method: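 Solubility proteome profiling in Jurkat crude lysate. Lysate was treated with Mg-GTP (0.1-10 mM) for 10 min at room temperature and 3 min at 37 °C, then solubilised with 0.8% NP40 and benzonase, followed by ultracentrifugation. Proteins were quantified by TMT10 LC-MS/MS; the value is the NP40-soluble abundance relative to the NP40-processed vehicle, from 3 independent experiments.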

Amino acid sequences for entries named in this document (tags omitted). A change or cut given only in a name is not applied to a line headed by its entry.
UniProt Q96FZ2: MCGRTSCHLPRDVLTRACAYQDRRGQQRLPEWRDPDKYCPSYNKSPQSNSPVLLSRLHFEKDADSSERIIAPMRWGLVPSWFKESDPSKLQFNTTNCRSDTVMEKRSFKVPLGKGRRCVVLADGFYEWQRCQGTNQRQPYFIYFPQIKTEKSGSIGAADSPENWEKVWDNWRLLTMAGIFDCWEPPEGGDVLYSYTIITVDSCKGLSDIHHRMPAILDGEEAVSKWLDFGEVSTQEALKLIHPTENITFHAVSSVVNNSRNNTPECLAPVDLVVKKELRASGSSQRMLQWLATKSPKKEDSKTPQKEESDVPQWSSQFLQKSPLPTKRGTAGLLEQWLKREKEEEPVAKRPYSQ
UniProt P46976: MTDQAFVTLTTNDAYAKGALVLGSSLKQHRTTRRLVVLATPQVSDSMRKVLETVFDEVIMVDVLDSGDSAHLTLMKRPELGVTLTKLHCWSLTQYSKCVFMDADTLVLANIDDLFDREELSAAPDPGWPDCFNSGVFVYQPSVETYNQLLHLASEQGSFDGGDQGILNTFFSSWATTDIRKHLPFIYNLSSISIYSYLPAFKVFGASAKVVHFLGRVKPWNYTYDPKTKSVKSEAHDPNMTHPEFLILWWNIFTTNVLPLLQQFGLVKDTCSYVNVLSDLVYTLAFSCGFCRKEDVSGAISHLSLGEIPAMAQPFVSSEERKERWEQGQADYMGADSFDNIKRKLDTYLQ
UniProt P07602: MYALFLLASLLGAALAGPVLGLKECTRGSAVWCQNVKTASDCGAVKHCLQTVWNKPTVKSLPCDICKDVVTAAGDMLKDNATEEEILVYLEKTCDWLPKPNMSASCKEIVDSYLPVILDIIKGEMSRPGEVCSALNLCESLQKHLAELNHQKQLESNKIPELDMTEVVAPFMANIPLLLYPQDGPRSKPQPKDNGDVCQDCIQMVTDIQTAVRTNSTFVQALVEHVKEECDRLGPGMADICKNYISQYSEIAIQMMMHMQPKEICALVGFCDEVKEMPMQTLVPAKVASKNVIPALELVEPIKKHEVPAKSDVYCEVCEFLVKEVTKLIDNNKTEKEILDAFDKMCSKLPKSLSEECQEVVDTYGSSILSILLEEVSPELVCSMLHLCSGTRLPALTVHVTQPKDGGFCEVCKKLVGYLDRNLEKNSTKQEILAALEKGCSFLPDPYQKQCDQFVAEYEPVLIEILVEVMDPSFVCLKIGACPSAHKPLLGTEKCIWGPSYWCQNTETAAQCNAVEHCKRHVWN

Row | Target | NP40-soluble protein abundance (concentration: 0.1mM) | NP40-soluble protein abundance (concentration: 0.5mM) | NP40-soluble protein abundance (concentration: 1mM) | NP40-soluble protein abundance (concentration: 2mM) | NP40-soluble protein abundance (concentration: 4mM) | NP40-soluble protein abundance (concentration: 6mM) | NP40-soluble protein abundance (concentration: 8mM) | NP40-soluble protein abundance (concentration: 10mM)
1 | B2WTI3 and related entries (UniProt Q6NYC1) | 0.973 ± 0.058 | 0.983 ± 0.064 | 0.99 ± 0.069 | 0.94 ± 0.061 | 0.978 ± 0.072 | 0.887 ± 0.038 | 0.964 ± 0.078 | 0.991 ± 0.1
2 | E7EMP6 and related entries (UniProt Q96FZ2) | 0.9812 ± 0.0021 | 0.991 ± 0.032 | 0.959 ± 0.02 | 0.979 ± 0.065 | 0.959 ± 0.074 | 0.945 ± 0.045 | 0.988 ± 0.038 | 0.962 ± 0.031
3 | D6RAN8 and related entries (UniProt Q9P0M9) | 1.09 ± 0.38 | 1.2 ± 0.5 | 1.53 ± 0.78 | 1.81 ± 0.82 | 1.91 ± 0.83 | 1.72 ± 0.79 | 1.64 ± 0.79 | 1.58 ± 0.84
4 | C9JQ42 and related entries (UniProt P46976) | 0.913 ± 0.14 | 0.9585 ± 0.0056 | 0.99 ± 0.1 | 1 ± 0.17 | 0.993 ± 0.31 | 0.927 ± 0.22 | 0.917 ± 0.22 | 0.914 ± 0.27
5 | C9JIZ6 and related entries (UniProt P07602) | 0.848 ± 0.011 | 0.81 ± 0.047 | 0.97 ± 0.024 | 0.932 ± 0.059 | 0.919 ± 0.066 | 0.933 ± 0.07 | 0.894 ± 0.095 | 0.972 ± 0.011

— the supplement of paper PMC6411743
